What was measured:
Format in all cases: in vivo, human
[1] = Metabolite changes in peripheral plasma after planned MI (alcohol septal ablation), LC-MS/MS profiling; conditions: for Median Δ (% change from baseline): peripheral blood; for Observed increase in response to injury: planned MI, range of six representative compounds
From the text: A total of 36 patients undergoing planned MI using alcohol septal ablation for the treatment of symptomatic hypertrophic obstructive cardiomyopathy (HOCM) were included. Inclusion criteria for the cohort were: 1) primary HOCM; 2) septal thickness of 16 mm or greater; 3) resting outflow tract gradient of greater than 30 mmHg, or an inducible outflow tract gradient of at least 50 mm Hg; 4) symptoms refractory to optimal medical therapy; and 5) appropriate coronary anatomy. The most proximal accessible septal branch was instrumented using standard angioplasty guiding catheters and guidewires and 1.5 or 2.0 mm×9 mm Maverick™ balloon catheters. Radiographic and echocardiographic contrast injections confirmed proper selection of the septal branch and balloon catheter position. Ethanol was infused through the balloon catheter at 1 ml per minute. Additional injections in the same or other septal branches were administered as needed, causing cessation of blood flow to the isolated myocardium, and to reduce the gradient to <20 mmHg.^16
Blood was drawn at baseline (just prior to the onset of the ablation) and at minutes, 1 hour, 2 hours, 4 hours and 24 hours following the onset of injury as depicted in FIG. 1. 13 of the 36 patients consented to the placement of a coronary sinus catheter during the ablation, allowing for the simultaneous sampling from coronary sinus and femoral catheters at the baseline, 10-minute and 1-hour time points. The coronary sinus catheter was subsequently removed prior to the patient leaving the catheterization suite.
Samples were obtained from femoral venous catheters during the procedure or, where indicated, from a catheter placed in the coronary sinus. Samples were collected in K2EDTA-treated tubes (Becton Dickinson). All blood samples were centrifuged at 2000×g for 10 minutes to pellet cellular elements. The supernatant plasma was then aliquoted and immediately frozen at −80° C. to minimize freeze-thaw degradation. Additional blood samples were sent to the clinical chemistry laboratory for evaluation of the standard cardiac markers creatine kinase (CK), CK-MB, and Troponin T (Roche Diagnostics).
For the analysis of sugars, ribonucleotides, and organic acids, 200 μl of plasma was subjected to ethanol precipitation (80% ethanol, 19.9% H2O, 0.1% formic acid) at 4° C. for 2 hours, centrifuged at 15000×g for 15 minutes, and the supernatant evaporated in a nitrogen-chamber at 30° C. (Caliper Life Sciences). Samples were reconstituted in 60 μl H2O, and aliquots were separated sequentially and automatically by injection onto three HPLC columns with orthogonal separation characteristics, as previously described.^10 Sugars and ribonucleotides were separated on a Luna amino column (Phenomenex) under normal phase using acetonitrile/water/0.25% ammonium hydroxide/10 mM ammonium acetate at pH 11 in a run time of 3.5 minutes. Organic acids were separated using a Synergi Polar-RP column (Phenomenex) under reverse phase using acetonitrile/water/5 mM ammonium acetate at pH 5.6-6.0 in a run time of 3.5 minutes. For the analysis of amino acids, plasma was diluted 10-fold with H2O and then subjected to reverse phase chromatography on a Luna phenyl-hexyl column (Phenomenex) using acetonitrile/water/0.1% acetic acid at pH 3.5-4.0 in a run time of 1.5 minutes.
The three HPLC columns were connected in parallel via an automated switching valve on a robotic sample loader (Leap Technologies) to a triple quadrupole mass spectrometer (AB4000Q, Applied Biosystem/Sciex), operated in electrospray ionization mode using a turbo ion spray LC/MS interface. Either positive or negative ions were selected for targeted MS/MS analysis using selective reaction monitoring (SRM) conditions. A total of 210 known metabolites were monitored for each sample. Precursor and product ions of metabolites presented in tables are detailed in Table 1, below. […]

[2] = Simultaneous coronary sinus and peripheral plasma sampling after planned MI (13-patient subgroup), LC-MS/MS profiling; conditions: for Ratio CS/P: coronary sinus change versus peripheral change; for Coronary Sinus Median ± IQR Δ (% change from baseline) / Coronary Sinus Median Δ (% change from baseline): coronary sinus plasma; for Peripheral Median ± IQR Δ (% change from baseline) / Peripheral Median Δ (% change from baseline): peripheral plasma of the coronary sinus subgroup
[3] = Control cohort: elective diagnostic cardiac catheterization without MI, plasma metabolite changes; conditions: 10-minute or 60-minute time points, P<0.01
[4] = 60 minutes after myocardial injury, derivation cohort (n=20)
[5] = 60 minutes after myocardial injury, validation cohort (n=16)
[6] = 60 minutes after myocardial injury
[7] = 10 minutes after myocardial injury, derivation cohort (n=20)
[8] = 10 minutes after myocardial injury, validation cohort (n=16)
[9] = 10 minutes after myocardial injury

| Compound | Median Δ (% change from baseline) [1, 4] [%] | Median Δ (% change from baseline) [1, 5] [%] | Coronary Sinus Median ± IQR Δ (% change from baseline) [2, 6] [%] | Peripheral Median ± IQR Δ (% change from baseline) [2, 6] [%] | Ratio CS/P [2, 9] | Coronary Sinus Median Δ (% change from baseline) [2, 9] [%] | Peripheral Median Δ (% change from baseline) [2, 9] [%] | other results |
| --- | --- | --- | --- | --- | --- | --- | --- | --- |
| O=CC(O)CO (stereo not shown) [Glyceraldehyde] | 14.4 | 24.5 |  |  |  |  |  |  |
| N[C@@H](CO)C(=O)O [Serine] | −10.0 | −8.9 |  |  |  |  |  |  |
| Cn1cnc(CCN)c1 [1-methylhistamine] | 12.9 | 33.2 | 17.0 | 12.1 |  |  |  | Ratio CS/P [2, 6]: 1.4 |
| O=c1[nH]c(=O)c2[nH]cnc2[nH]1 [Xanthine] | 48.1 | 71.9 |  |  |  |  |  |  |
| Aminoisobutyric Acid | 45.5 | 27.7 |  |  |  |  |  | Median Δ (% change from baseline) [1, 7]: 31.7%; Median Δ (% change from baseline) [1, 8]: 2.9% |
| O=C(O)CCC(=O)O [Succinic Acid] |  |  | 14.3 | 2.1 |  |  |  | Ratio CS/P [2, 6]: 6.9 |
| O=C(O)[C@@H]1CCCN1 [Proline] | −4.6 | −4.2 |  |  |  |  |  |  |
| Nc1ccn([C@H]2C[C@H](O)[C@@H](COP(=O)(O)O)O2)c(=O)n1 [DCMP, deoxycytidine monophosphate] |  |  |  |  | 19.6 | 32.9 | −1.7 |  |
| NCCS(=O)(=O)O [Taurine] |  |  | 7.3 | 2.1 |  | 15.1 | −2.0 | Observed increase in response to injury [1]: 15% |
| OC[C@H]1O[C@@H](n2cnc3c(O)ncnc32)[C@H](O)[C@@H]1O [Inosine] | 51.6 | 35.7 |  |  | 8.2 | 86.9 | 10.6 |  |
| C[C@H](N)C(=O)O [Alanine] | −22.6 | −11.9 |  |  |  |  |  | Median Δ (% change from baseline) [1, 7]: −18.2%; Median Δ (% change from baseline) [1, 8]: −12.4% |
| O=c1[nH]cnc2nc[nH]c12 [Hypoxanthine] | 301.7 | 342.5 | 331.6 | 275.1 | 1.9 | 237.9 | 128.1 | Median Δ (% change from baseline) [1, 7]: 189.6%; Median Δ (% change from baseline) [1, 8]: 249.6%; Observed increase in response to injury [1]: 301%; Ratio CS/P [2, 6]: 1.3 |
| O=C(O)C(CO)OP(=O)(O)O (stereo not shown) [Glycerate-2-P] |  |  | 12.7 | 3.1 |  |  |  | Ratio CS/P [2, 6]: 4.0 |
| O=C(O)CC(O)C(=O)O (stereo not shown) [Malic Acid] |  |  | 21.3 | 9.4 | 4.3 | 29.9 | 6.9 | Ratio CS/P [2, 6]: 2.3 |
| N[C@@H](Cc1ccc(O)cc1)C(=O)O [tyrosine] |  |  |  |  |  |  |  | Change with cardiac catheterization alone [3]: associated with changes |
| C[N+](C)(C)[O-] [Trimethylamine-N-Oxide] | −20.2 | −32.4 |  |  |  |  |  | Median Δ (% change from baseline) [1, 7]: −15.5%; Median Δ (% change from baseline) [1, 8]: −24.4% |
| N[C@@H](Cc1ccccc1)C(=O)O [phenylalanine] |  |  |  |  |  |  |  | Change with cardiac catheterization alone [3]: associated with changes |
| asymmetric dimethyl arginine (ADMA)/symmetric dimethyl arginine (SDMA) [ADMA/SDMA] |  |  |  |  | 5.0 | −14.9 | −2.9 |  |
| N[C@@H](CCC(=O)O)C(=O)O [Glutamic Acid] |  |  |  |  | 1.5 | 55.4 | 37.6 |  |
| N[C@@H](Cc1c[nH]c2ccccc12)C(=O)O [tryptophan] |  |  |  |  |  |  |  | Change with cardiac catheterization alone [3]: associated with changes |
| CC(O)C(=O)O (stereo not shown) [Lactic Acid] |  |  |  |  | 394.5 | 23.5 | 0.06 |  |
| O=C(O)CC(=O)O [Malonic Acid] | 47.9 | 43.7 |  |  | 2.2 | 32.8 | 15.0 | Median Δ (% change from baseline) [1, 7]: 16.0%; Median Δ (% change from baseline) [1, 8]: 24.2% |
| O=P(O)(O)OCC(O)CO (stereo not shown) [Glycerol-3-P, glycerol-3-phosphate] |  |  | 31.3 | −7.9 |  |  |  | Ratio CS/P [2, 6]: 4.0 |
| Ribose-5-P/Ribulose-5-P |  |  |  |  | 2.5 | 18.1 | −7.3 |  |
| O=C(O)c1cc(=O)[nH]c(=O)[nH]1 [Orotic Acid] |  |  | 22.4 | 0.87 |  |  |  | Ratio CS/P [2, 6]: 25.9 |
| Isoleucine/Leucine | 10.6 | 13.3 | 13.8 | 9.8 |  |  |  | Median Δ (% change from baseline) [1, 7]: 7.0%; Median Δ (% change from baseline) [1, 8]: 7.4%; Ratio CS/P [2, 6]: 1.4 |
| NC(=O)CC[C@H](N)C(=O)O [Glutamine] |  |  |  |  | 1.7 | 9.7 | 5.8 |  |
| C[C@@H](O)[C@H](N)C(=O)O [Threonine] | −7.5 | −6.9 |  |  |  |  |  | Median Δ (% change from baseline) [1, 7]: −10.0%; Median Δ (% change from baseline) [1, 8]: −4.9% |
| Nc1ncnc2c1ncn2[C@@H]1O[C@H](COP(=O)(O)O)[C@@H](O)[C@H]1O [AMP, adenosine monophosphate] |  |  |  |  | 10.2 | 102.7 | 10.1 |  |

— US20090269796A1, “METHODS OF DETECTING AND TREATING MYOCARDIAL ISCHEMIA AND MYOCARDIAL INFARCTION” (THE GENERAL HOSPITAL CORPORATION, priority 2007, published 2009)
